At least one compound was matched to its structure with a doubt left.
Biological target: T1, human nicotinic acetylcholine receptor subtype a4b2 (Homo sapiens, UniProt P17787+P43681)
T1 construct: expressed in transfected cells
Assay: FLIPR nAChR a4b2 positive allosteric modulator activity (modulation of nicotine-induced response)
Format: cell-based
Conditions: shift of nicotine pEC50 in the presence of 10 μM test compound compared to nicotine alone, HEK-293 cells stably expressing hα4β2
Description: Characterization of hα4β2 Positive Allosteric Modulators Using FLIPR
The modulator activity is determined as a fluorescence-based assay using a Fluorometric Imaging Plate Reader (FLIPR) as described below in more detail.
Full concentration-response curves of nicotine +/− test compound are generated and delta pEC50 values are calculated based on EC50 values for nicotine +/− test compound. EC50 values (Effective Concentration 50%) represent the concentration of the nicotine, at which the nicotine-induced response is 50% of the maximal nicotine-induced response.

Chains of the proteins cited; added tags and fusions are not shown. Residues count along the entry.
UniProt P17787, 26-502: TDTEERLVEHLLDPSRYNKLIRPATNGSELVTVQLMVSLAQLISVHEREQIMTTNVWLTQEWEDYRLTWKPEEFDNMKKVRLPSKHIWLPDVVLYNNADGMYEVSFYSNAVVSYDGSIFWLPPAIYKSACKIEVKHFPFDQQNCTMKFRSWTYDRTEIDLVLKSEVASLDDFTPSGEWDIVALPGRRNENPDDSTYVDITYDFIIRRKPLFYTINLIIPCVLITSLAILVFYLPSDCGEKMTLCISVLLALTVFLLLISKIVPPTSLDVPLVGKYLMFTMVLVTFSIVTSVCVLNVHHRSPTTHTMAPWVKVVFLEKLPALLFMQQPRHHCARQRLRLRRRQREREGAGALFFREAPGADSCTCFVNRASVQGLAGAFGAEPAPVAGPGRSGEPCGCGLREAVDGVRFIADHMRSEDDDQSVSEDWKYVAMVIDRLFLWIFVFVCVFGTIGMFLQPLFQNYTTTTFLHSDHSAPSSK
UniProt P43681, 29-627 limits assumed: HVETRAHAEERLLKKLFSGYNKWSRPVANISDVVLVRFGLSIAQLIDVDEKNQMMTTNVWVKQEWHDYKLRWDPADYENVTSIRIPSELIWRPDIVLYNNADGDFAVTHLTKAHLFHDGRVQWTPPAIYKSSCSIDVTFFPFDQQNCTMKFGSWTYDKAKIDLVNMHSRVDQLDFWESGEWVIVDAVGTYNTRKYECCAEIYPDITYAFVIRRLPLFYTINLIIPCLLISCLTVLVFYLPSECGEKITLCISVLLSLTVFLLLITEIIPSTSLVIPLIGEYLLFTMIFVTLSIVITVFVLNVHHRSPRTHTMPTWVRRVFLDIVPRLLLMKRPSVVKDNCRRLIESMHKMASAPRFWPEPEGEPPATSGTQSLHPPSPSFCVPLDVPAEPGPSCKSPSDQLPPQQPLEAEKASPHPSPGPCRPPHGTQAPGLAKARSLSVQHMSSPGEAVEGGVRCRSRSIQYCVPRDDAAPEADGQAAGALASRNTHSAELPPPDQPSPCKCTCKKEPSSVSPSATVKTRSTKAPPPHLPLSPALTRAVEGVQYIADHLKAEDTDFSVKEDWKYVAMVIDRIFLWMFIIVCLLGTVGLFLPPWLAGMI

Q: For `N#Cc1cccc(-c2nnn(-c3ccc(Cl)nc3)n2)c1` [Compound 2.11, 3-[2-(6-Chloro-3-pyridyl)tetrazol-5-yl]benzonitrile], which “Delta pEC50” value is on record?
A: Its value is 1.1.
